Where two headings read alike, the source gives them in different places. Results are given in words; binding and its absence hold for the method and conditions named. In cells and extracts the contact can be indirect. Some binding calls cover weakened binding; strength is not graded here.
What was measured:
[1] = target: c-Myc (human (endogenous in TOV-112D)) (UniProt P01106); assay: co-IP; TOV-112D PT-res cell lysates in HNTG buffer, treated or not with CDDP; primary antibody overnight at 4 °C, protein A or G agarose; western blot
[2] = target: c-Myc (human (endogenous in TOV-112D)) (UniProt P01106); assay: as above; remark: listed apart in the source
[3] = target: SP1 (human (endogenous in TOV-112D)) (UniProt P08047); assay: co-IP; IP of SP1 from formaldehyde-cross-linked, MNase-digested chromatin (ChIP kit, magnetic beads) of TOV-112D PT-sen cells, treated or not with CDDP (50 uM, 16 h); western blot of SP1-bound proteins

Sequences of proteins named here, by UniProt entry; tags and fusion partners are left off.
UniProt P01106: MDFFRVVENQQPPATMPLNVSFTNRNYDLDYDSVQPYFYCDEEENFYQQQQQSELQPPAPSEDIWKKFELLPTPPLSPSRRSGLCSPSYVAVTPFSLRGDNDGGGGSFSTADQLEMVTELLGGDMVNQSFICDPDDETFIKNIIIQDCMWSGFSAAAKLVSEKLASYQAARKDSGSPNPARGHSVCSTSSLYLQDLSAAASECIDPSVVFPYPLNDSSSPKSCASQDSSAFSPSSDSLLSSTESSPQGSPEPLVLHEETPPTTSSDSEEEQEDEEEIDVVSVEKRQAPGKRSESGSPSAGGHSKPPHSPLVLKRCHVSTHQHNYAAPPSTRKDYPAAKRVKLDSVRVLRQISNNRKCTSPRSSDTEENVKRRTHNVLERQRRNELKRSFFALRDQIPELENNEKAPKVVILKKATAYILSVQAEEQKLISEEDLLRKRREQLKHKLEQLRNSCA
UniProt P08047: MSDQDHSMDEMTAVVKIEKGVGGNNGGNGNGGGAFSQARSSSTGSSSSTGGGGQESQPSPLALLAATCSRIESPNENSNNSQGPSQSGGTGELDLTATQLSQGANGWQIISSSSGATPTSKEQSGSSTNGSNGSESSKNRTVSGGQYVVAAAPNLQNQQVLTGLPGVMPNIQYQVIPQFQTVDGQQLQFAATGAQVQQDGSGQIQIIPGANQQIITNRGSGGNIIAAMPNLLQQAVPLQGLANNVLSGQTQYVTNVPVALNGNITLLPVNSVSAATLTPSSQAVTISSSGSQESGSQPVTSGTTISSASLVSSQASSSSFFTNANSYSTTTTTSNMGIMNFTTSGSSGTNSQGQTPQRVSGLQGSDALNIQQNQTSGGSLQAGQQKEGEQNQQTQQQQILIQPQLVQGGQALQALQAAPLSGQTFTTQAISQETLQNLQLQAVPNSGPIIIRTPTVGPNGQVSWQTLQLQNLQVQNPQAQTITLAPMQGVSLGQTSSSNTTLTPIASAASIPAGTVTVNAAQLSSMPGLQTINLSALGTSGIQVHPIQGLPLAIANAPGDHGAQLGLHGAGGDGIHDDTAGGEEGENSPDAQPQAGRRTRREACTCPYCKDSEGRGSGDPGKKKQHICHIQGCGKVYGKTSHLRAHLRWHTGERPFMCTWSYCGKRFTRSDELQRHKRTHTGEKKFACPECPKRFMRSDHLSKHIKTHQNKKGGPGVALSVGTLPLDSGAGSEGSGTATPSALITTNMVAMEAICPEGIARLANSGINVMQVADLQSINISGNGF
UniProt Q13547: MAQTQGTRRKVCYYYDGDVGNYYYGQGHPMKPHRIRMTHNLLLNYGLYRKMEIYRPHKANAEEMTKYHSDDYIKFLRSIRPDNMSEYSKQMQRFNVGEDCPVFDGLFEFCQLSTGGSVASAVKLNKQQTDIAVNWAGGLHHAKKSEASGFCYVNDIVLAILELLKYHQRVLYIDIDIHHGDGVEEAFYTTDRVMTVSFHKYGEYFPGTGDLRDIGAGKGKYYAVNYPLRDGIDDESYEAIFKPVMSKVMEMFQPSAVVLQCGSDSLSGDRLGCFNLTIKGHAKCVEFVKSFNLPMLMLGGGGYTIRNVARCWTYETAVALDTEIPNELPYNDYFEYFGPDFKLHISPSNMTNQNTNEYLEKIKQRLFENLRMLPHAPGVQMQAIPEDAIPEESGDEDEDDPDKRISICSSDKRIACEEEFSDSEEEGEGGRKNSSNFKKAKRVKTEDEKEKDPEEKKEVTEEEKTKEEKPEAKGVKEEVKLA

Substance | binding [1] | binding [2] | binding [3]
HDAC1 (from UniProt Q13547 1-482) (enzyme) | binds weakly | no binding (condition: in PT-res cells) | –
SP1 (from UniProt P08047 1-785) | – | no binding (condition: in PT-res cells) | –
c-Myc (from UniProt P01106 1-454) (other; other documents disagree on this pair) | – | – | binds
